Data from patent US20170112948A1, “Inorganic-organic hybrid compound” (Karlsruher Institut für Technologie, priority 2014, published 2017).

System: lipopolysaccharide (LPS) stimulated peritoneal macrophages (MF)
Experiment: anti-inflammatory activity in LPS-stimulated peritoneal macrophages
Type: cell-based
Details: LPS-stimulated peritoneal macrophages freshly isolated from mice; increasing concentration 10^−10 to 10^−5 molar; in comparison to dexamethasone (DM); FIG. 5
Excerpt: Under physiological conditions, the active ingredient is released from the active ingredient anion very slowly, over a period of several hours to several days, and is able to develop its activity at the locus of action. This is shown in FIG. 4 for slow release in a laboratory suspension. The active ingredient anions here may be selected from a very broad range in terms of composition, and cover a wide range of possible clinical pictures. In addition to the release of an active ingredient, the inorganic-organic hybrid compounds of the invention can be located by the fluorescence of an additionally incorporated fluorescent dye anion. […] In order to bring the nanoparticles in vivo to a specific locus of action, the inorganic-organic hybrid nanoparticles may additionally be functionalized with a peptide, antibody or oligonucleotide which is directed against a disease-specific target.

Which anti-inflammatory activity does the source give for `C[C@H]1C[C@H]2[C@@H]3CCC4=CC(=O)C=C[C@]4(C)[C@@]3(F)[C@@H](O)C[C@]2(C)[C@@]1(O)C(=O)COP(=O)(O)O` [Compound 2, Betamethasone Phosphate] here?
Its anti-inflammatory activity is “has an anti-inflammatory activity”.
